Assay: Deodorizing effect (chemical deodorization, gas detector tube)
Details: 400 ppm; for deodorizing effect on amine odor over time: up to 24 hours after spraying
Source text: In order to evaluate tests on deodorizing effects, the present Example examined deodorizing effects by using standards regarding air freshening and deodorization ([II]-2 Method of Testing Deodorizing Efficacy (Chemical Deodorization)) set forth by the Air Fresheners and Deodorizers Conference (http://www.houkou.gr.jp/) as the efficacy testing method, which is adopted by Japan Food Research Laboratories.
Ammonium odor: Ammonium Standard Solution II (Wako Pure Chemical Industries, for testing malodorous substances) Amine odor: methyl mercaptan standard solution (Wako Pure Chemical Industries, for testing malodorous substances) Sulfur odor: hydrogen sulfide (self-made, used hydrogen sulfide that was generated by adding sulfuric acid to zinc sulfide)
Gas detector tube made by GASTEC Corporation Ammonium odor: Detector tube ammonium 3 L made by GASTEC Corporation Amino odor: Detector tube methyl mercaptan 71 made by GASTEC Corporation Sulfur odor: Detector tube hydrogen sulfide 4 LL made by GASTEC Corporation […]
The bags were filled with odorless air. Malodor concentrations were measured over time at room temperature (about 20° C.). (3 points or higher, detection tube method (FIG. 16), measured by an instrument analysis method or olfactory measurement method. When decrease in the blank was observed, the decrease was suitably corrected. When measuring by olfactory measuring method, the airbag spigot was opened for direct sniffing, or gas was transferred to an odor bag while wearing a mask to perform olfactory measurement in an autonomic respiration form. Measured air was not returned to the source).
Next, for amine odor (methyl mercaptan), the residual concentrations were detected and recorded for control (no specimen), 20 ml (cc) of distilled water, sodium hypochlorite (expressed as Na hypochlorite, 400 ppm), and chlorous acid aqueous solution (expressed as CAAS, 400 ppm) prior to spraying and 0 hour, 3 hours, 6 hours, 9 hours, and 24 hours after spraying. […]

Compound: OCl [Sodium Hypochlorite, sodium hypochlorite]
- residual methyl mercaptan, corrected value (control = 100) (first experiment, 3 hours after spraying): ≤ 10
- deodorizing effect on amine odor over time: a phenomenon of rising odor can be seen thereafter as time passes
- deodorizing effect on amine odor over time (listed as Na hypochlorite): tendency for amine odor to rise

Reference: patent US20170015555A1, “LONG-TERM PRESERVATION AND NOVEL APPLICATION OF CHLOROUS ACID AQUEOUS SOLUTION FORMULATION” (priority 2013, published 2017)
